Results are given in words; binding and its absence hold for the method and conditions named. Binding seen in cells or lysates may run through a third protein. These calls come from enrichment with a bait or labelling near it, and not all partners need be listed. Tags and fused reporters may be left off the sequences shown.
Target: T1, 3FS-mORRM1 (3xFLAG-strepII-tagged mature ORRM1, expressed from 35S::RecA-3FS-mORRM1) (Arabidopsis thaliana) (UniProt Q8L440)
T1 sequence: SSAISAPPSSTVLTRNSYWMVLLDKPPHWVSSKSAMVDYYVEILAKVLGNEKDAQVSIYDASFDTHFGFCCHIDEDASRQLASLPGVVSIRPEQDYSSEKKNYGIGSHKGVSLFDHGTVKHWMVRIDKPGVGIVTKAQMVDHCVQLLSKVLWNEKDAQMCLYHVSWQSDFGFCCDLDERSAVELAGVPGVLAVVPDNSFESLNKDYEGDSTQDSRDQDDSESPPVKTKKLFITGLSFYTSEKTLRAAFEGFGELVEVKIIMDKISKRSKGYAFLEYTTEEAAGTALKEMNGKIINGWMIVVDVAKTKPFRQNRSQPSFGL
Assay: affinity purification with mass spectrometry; anti-FLAG agarose IP of 3FS-mORRM1 from total leaf protein of transgenic plants; wild-type Columbia as negative control; 150 mM NaCl, 50 mM Tris-HCl pH 7.4, 1 mM EDTA, 0.2% NP-40; eluate analysed by nanoLC-LTQ-Orbitrap MS/MS

binding: binds
Substance: OZ1 (Organelle Zinc finger 1), protein encoded by At5g17790

Reference: PMC4359148
